Data as given in PMC9463175.
No constants are given. Whether binding was seen depends on the method and setting. Binding seen in cells or lysates may run through a third protein. Some results given as binding are weak or reduced against the parent protein; the word gives no strength. Where a sequence is shown, tags or fusion partners need not be part of it.

Experiments:
[1] = target: T1, Flag-ZNF276 (zinc finger protein 276) (UniProt Q8N554); test: co-IP; total cell extracts precleared, incubated with anti-Flag or anti-HA 15 min at 4 °C, protein A/G beads overnight; forward and reverse
T1 sequence: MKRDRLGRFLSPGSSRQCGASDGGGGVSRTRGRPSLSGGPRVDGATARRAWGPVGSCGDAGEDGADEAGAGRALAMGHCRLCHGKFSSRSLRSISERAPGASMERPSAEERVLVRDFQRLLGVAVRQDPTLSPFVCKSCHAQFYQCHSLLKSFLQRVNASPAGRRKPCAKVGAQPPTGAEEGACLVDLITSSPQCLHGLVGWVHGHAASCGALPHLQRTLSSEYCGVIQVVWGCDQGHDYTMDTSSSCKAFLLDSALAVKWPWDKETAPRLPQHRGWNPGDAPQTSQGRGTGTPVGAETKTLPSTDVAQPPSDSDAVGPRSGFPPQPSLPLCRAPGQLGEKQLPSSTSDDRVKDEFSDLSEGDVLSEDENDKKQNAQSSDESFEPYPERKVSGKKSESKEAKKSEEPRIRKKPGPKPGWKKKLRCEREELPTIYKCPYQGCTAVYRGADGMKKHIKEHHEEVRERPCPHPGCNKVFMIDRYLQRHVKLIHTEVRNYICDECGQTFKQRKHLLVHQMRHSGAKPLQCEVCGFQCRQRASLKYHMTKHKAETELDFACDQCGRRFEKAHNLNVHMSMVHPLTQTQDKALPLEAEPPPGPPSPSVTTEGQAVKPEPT

[2] = target: T2, HA-MAGEB2 (Melanoma-Associated Antigen B2) (UniProt O15479); test: as above
T2 sequence: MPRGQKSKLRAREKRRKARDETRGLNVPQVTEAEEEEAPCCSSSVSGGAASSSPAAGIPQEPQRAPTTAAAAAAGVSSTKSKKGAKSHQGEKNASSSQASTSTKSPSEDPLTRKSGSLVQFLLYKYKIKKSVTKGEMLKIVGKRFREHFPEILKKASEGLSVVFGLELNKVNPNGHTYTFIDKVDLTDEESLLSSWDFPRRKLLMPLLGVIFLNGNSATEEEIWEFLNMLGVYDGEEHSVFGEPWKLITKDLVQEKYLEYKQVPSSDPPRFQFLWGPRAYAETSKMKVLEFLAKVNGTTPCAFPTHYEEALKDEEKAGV

B1: HA-MAGEB2 (Melanoma-Associated Antigen B2) (protein, UniProt O15479 1-319)
chain: MPRGQKSKLRAREKRRKARDETRGLNVPQVTEAEEEEAPCCSSSVSGGAASSSPAAGIPQEPQRAPTTAAAAAAGVSSTKSKKGAKSHQGEKNASSSQASTSTKSPSEDPLTRKSGSLVQFLLYKYKIKKSVTKGEMLKIVGKRFREHFPEILKKASEGLSVVFGLELNKVNPNGHTYTFIDKVDLTDEESLLSSWDFPRRKLLMPLLGVIFLNGNSATEEEIWEFLNMLGVYDGEEHSVFGEPWKLITKDLVQEKYLEYKQVPSSDPPRFQFLWGPRAYAETSKMKVLEFLAKVNGTTPCAFPTHYEEALKDEEKAGV
In the case of B1, the binding [1] is reported as “binds”.

B2: Flag-ZNF276 (zinc finger protein 276) (protein, UniProt Q8N554 1-614)
chain: MKRDRLGRFLSPGSSRQCGASDGGGGVSRTRGRPSLSGGPRVDGATARRAWGPVGSCGDAGEDGADEAGAGRALAMGHCRLCHGKFSSRSLRSISERAPGASMERPSAEERVLVRDFQRLLGVAVRQDPTLSPFVCKSCHAQFYQCHSLLKSFLQRVNASPAGRRKPCAKVGAQPPTGAEEGACLVDLITSSPQCLHGLVGWVHGHAASCGALPHLQRTLSSEYCGVIQVVWGCDQGHDYTMDTSSSCKAFLLDSALAVKWPWDKETAPRLPQHRGWNPGDAPQTSQGRGTGTPVGAETKTLPSTDVAQPPSDSDAVGPRSGFPPQPSLPLCRAPGQLGEKQLPSSTSDDRVKDEFSDLSEGDVLSEDENDKKQNAQSSDESFEPYPERKVSGKKSESKEAKKSEEPRIRKKPGPKPGWKKKLRCEREELPTIYKCPYQGCTAVYRGADGMKKHIKEHHEEVRERPCPHPGCNKVFMIDRYLQRHVKLIHTEVRNYICDECGQTFKQRKHLLVHQMRHSGAKPLQCEVCGFQCRQRASLKYHMTKHKAETELDFACDQCGRRFEKAHNLNVHMSMVHPLTQTQDKALPLEAEPPPGPPSPSVTTEGQAVKPEPT
With B2 the binding [2] was “binds”.
